Results: US20080019991A1 (CYTOS BIOTECHNOLOGY, published 2008)
Results are given in words; binding and its absence hold for the method and conditions named. Some binding calls cover weakened binding; strength is not graded here. Where a sequence is shown, tags or fusion partners need not be part of it.

Chains of the proteins cited; added tags and fusions are not shown. Residues count along the entry.
UniProt O35235, residues 138-316: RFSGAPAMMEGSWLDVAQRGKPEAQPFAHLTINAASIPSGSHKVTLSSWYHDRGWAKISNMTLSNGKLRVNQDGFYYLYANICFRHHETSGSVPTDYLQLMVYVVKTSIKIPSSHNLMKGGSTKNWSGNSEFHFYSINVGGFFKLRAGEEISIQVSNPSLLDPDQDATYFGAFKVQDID

Molecular target: mouse RANKL protein (mouse) (UniProt O35235)
Experiment: ELISA, mouse RANKL coated at 10 µg/ml, anti-hFc-HRP detection

binding: binds
B1: recombinant mouse RANK-hFc fusion protein (Fc fusion, UniProt O35305 31-214, looked up, not shown: a dimerising Fc or GST)
chain: VTPPCTQERHYEHLGRCCSRCEPGKYLSSKCTPTSDSVCLPCGPDEYLDTWNEEDKCLLHKVCDAGKALVAVDPGNHTAPRRCACTAGYHWNSDCECCRRNTECAPGFGAQHPLQLNKDTVCTPCLLGFFSDVFSSTDKCKPWTNCTLLGKLEAHQGTTESDVVCSSSMTLRRPPKEAQAYLPS
